A short description of the test: IkB Signaling. As to conditions: ABC-DLBCL IkBa-CBG/CBR dual luciferase ratio (green luciferase fused to IkBa over red control in OCI-Ly3 lymphoma cells), 4 h. The method, boiled down: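 Luminescence ratio of IκBα-fused green versus native red beetle luciferase in OCI-Ly3 cells, 4 h post-doxycycline with compound; red signal alone, scaled from basal (0%) to zero light (-100%), flagged nonspecific or cytotoxic effects.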
The mark [1] stands for this setting: measured here: control luc red channel unless noted.

The other results are listed elsewhere or left out. The main result of the screen is listed elsewhere. These columns were measured beside it and carry no call. Most of these compounds were active or inconclusive in the main read-out, so they are no random draw. The note in brackets gives the kind of curve behind each potency; many fits are weak.

Turning to `Cc1ccc2c(c1)cc1c(=O)n(CC(=O)N3CCCCC3)nc(C)n12`, under setting [1], the AC50 (commonly the concentration giving half of the maximal activity seen) was 39.8 µM [falling, single point].

For the compound `CN1/C(=C/C(=O)c2nc(S(C)(=O)=O)ncc2Cl)C(C)(C)c2ccccc21`, under setting [1], the AC50 was 5.01 µM [falling, full curve].

As to `CCc1ccc(C(=O)c2cn(CC(=O)Nc3ccc(C)c(C)c3)c3ccccc3c2=O)cc1`, under setting [1], the AC50 was 7.94 µM [falling, partial curve].

On to `O=C(NCC1CCCO1)c1c[nH]c2ccc(S(=O)(=O)Nc3cccc(C(F)(F)F)c3)cc2c1=O` (stereo unspecified), for which the AC50 under setting [1] is 39.8 µM [falling, single point].

For the compound `CCC(Sc1nc2nccnc2c(=O)n1Cc1ccc(OC)cc1)C(=O)NC1CCCCC1` (stereo unspecified), the AC50 under setting [1] is 39.8 µM [falling, single point].

Turning to `CC(C)(C)c1cc(CN2CCCC(O)C2)c(O)c(C(C)(C)C)c1` (stereo unspecified), the AC50 under setting [1] was 25.1 µM [falling, partial curve].

Turning to `CCCc1cc(C(=O)N2CCN(c3ccccc3C)CC2)cs1`, the AC50 under setting [1] is 20 µM [falling, partial curve].

For the compound `CC(C)n1c(SCC(=O)Nc2ccc(F)cc2)nc2c(oc3ccccc32)c1=O`, the AC50 under setting [1] was 39.8 µM [falling, single point].

`Cc1cccc(NC(=O)c2cc(NC(=O)C3CCCCC3C(=O)O)ccc2N2CCCCC2)c1` (stereo unspecified): the AC50 under setting [1] is 25.1 µM [falling, single point].

For `CCOc1ccc(C2C(=O)N(C3CCCCC3)CC(=O)N2C2CCCC2)cc1OC` (stereo unspecified), the AC50 under setting [1] was 0.00794 µM [rising, full curve].

Consider `COC(=O)c1[nH]c2ccc(C)cc2c1NC(=O)CN1CCc2cc(OC)c(OC)cc2C1`, for which the AC50 under setting [1] was 12.6 µM [falling, partial curve].

Turning to `COc1ccc(/C=C/C(=O)Nc2sc3c(c2C(N)=O)CCC(C)C3)cc1OC` (stereo unspecified), the AC50 under setting [1] was 39.8 µM [falling, single point].

For the compound `N#CCCCSc1nnc(CSc2nc3ccccc3s2)n1-c1ccccc1`, under setting [1], the AC50 is 25.1 µM [falling, partial curve].

In the case of `CCOC(=O)c1c(NC(=O)c2cc(C)on2)sc(C)c1C`, the AC50 under setting [1] is 12.6 µM [rising, partial curve, poor fit].

`Cc1ccc(-n2ncc3c(N4CCN(C)CC4)ncnc32)cc1Cl`: the AC50 under setting [1] was 2.51 µM [falling, full curve].

As for `CNC(=O)c1ccc(Nc2nnc(-c3ccc(C)c(S(=O)(=O)N4CCCCC4)c3)c3ccccc23)cc1`, the AC50 under setting [1] was 20 µM [falling, partial curve].

For the compound `CCc1cccc(NC(=O)CSc2ncccc2C(=O)Oc2ccccc2Cl)c1`, under setting [1], the AC50 is 12.6 µM [falling, partial curve].

Take `CNC(=O)c1c[nH]c2ccc(S(=O)(=O)Nc3cccc(Cl)c3C)cc2c1=O`: the AC50 is, setting by setting: (measured here: IkB-luc green channel) 7.94 µM [rising, partial curve]; (measured here: control luc red channel) 3.98 µM [falling, full curve, poor fit].

For `Cc1cc(C)cc(OCc2ccc(C(=O)Nc3ccccc3F)o2)c1`, the AC50 under setting [1] is 3.98 µM [falling, full curve, poor fit].

With `NCCCCCc1nnc(SCC(=O)c2ccc(Cl)cc2)o1`, the AC50 under setting [1] was 3.16 µM [falling, full curve].

Turning to `COc1ccc(CNC(=O)CCC(=O)N2CC3CCCN3c3ccccc32)c(OC)c1` (stereo unspecified), under setting [1], the AC50 is 0.398 µM [falling, partial curve].

On to `Cc1ccc(C2=CC(c3c(F)cccc3Cl)n3ncnc3N2)cc1C` (stereo unspecified), for which the AC50 under setting [1] was 15.8 µM [falling, single point].

`CC(=O)Nc1cc(-c2nc3ccccc3s2)ccc1C`: under setting [1], the AC50 was 1.26 µM [rising, partial curve, poor fit].

As for `Cc1cccc(N(CC(=O)NCc2ccc3c(c2)OCO3)C(=O)CCC(=O)Nc2ccccn2)c1`, the AC50 under setting [1] is 31.6 µM [falling, partial curve].

With `CCn1c(-c2ccc(S(=O)(=O)N3CCOCC3)cc2)csc1=Nc1ccc(C)c(Cl)c1`, the AC50 under setting [1] was 7.94 µM [falling, partial curve].

For the compound `COc1ccccc1N(CC(=O)NC1CCCCC1)C(=O)CCC(=O)Nc1ccccn1`, under setting [1], the AC50 was 10 µM [falling, partial curve].

On to `CCOC(=O)c1ccc(CN(Cc2ccccc2C)S(=O)(=O)c2ccc(C(C)(C)C)cc2)cc1`, for which the AC50 under setting [1] was 3.98 µM [falling, partial curve].

Consider `COc1cccc(C2C(C(=O)Nc3ccccc3)=C(C)Nc3nc(-c4ccccc4)nn32)c1OC` (stereo unspecified), for which the AC50 under setting [1] is 25.1 µM [falling, partial curve].

Take `Cc1cccc(-c2noc(-c3ccc(N4CCN(C)CC4)c([N+](=O)[O-])c3)n2)c1`: the AC50 under setting [1] was 15.8 µM [falling, partial curve].

With `COc1ccc(C)cc1NC(=O)c1ccc2c(c1)CCN2S(=O)(=O)c1ccc(Cl)cc1`, the AC50 under setting [1] is 0.794 µM [falling, partial curve].

`O=C(Nc1nccs1)c1ccc(Cl)c(S(=O)(=O)N2CCCCC2)c1`: under setting [1], the AC50 was 15.8 µM [falling, partial curve].

Turning to `COc1ccc(CNc2nc3c(c(=O)n(C)c(=O)n3C)n2Cc2ccccc2Cl)cc1`, the AC50 under setting [1] was 31.6 µM [falling, single point].

Regarding `Cc1cc(NC(=O)C(C)C)ncc1NC(=O)c1cccc(F)c1`, the AC50 under setting [1] was 6.31 µM [rising, single point].

In the case of `COc1ccc(-c2noc(-c3ccc(N4CCCCC4C)c([N+](=O)[O-])c3)n2)cc1OC` (stereo unspecified), the AC50 under setting [1] was 1.26 µM [falling, full curve].

With `Cn1c(CSCc2ccccc2Cl)nnc1SCC(=O)Nc1nccs1`, under setting [1], the AC50 was 10 µM [falling, partial curve].

With `Cc1cc(-n2[nH]c(C)c(C)c2=O)nc(-c2ccccc2O)n1`, under setting [1], the AC50 was 15.8 µM [falling, partial curve].

Consider `OCc1nc2ccccc2n1CC(O)Cn1ccc2ccccc21` (stereo unspecified), for which the AC50 under setting [1] was 12.6 µM [falling, partial curve].

For the compound `CCOC(=O)N1CCc2c(sc(NCc3cccc(F)c3)c2C(=O)Nc2ccc(OC)cc2)C1`, the AC50 under setting [1] was 0.2 µM [rising, full curve].

For `Cc1ccc(CNc2nc3ccc(Cl)cc3n3nnnc23)cc1`, the AC50 under setting [1] is 25.1 µM [falling, partial curve, poor fit].

Take `Cc1cc(-c2ccc(C)c(S(=O)(=O)Nc3ccccn3)c2)on1`: the AC50 under setting [1] was 10 µM [rising, partial curve].

The values above are taken from PubChem BioAssay AID445 (National Center for Advancing Translational Sciences (NCATS), 2006).
